# According to PubChem BioAssay AID504834 (National Center for Advancing Translational Sciences (NCATS), 2011):
# “And” between values parts separate entries of the source, which are not always exact repeats. Identical values can stand only once. Among all 320,000 compounds or so, about 22,000 (6.9%) were called active. Inconclusive results, whose numbers are uncertain, are shown with a selection of clear calls. Calls come from the whole dose curve; as a rule, active = well fitted inhibition curve with a large enough effect; inconclusive = small, poorly fitted or top-dose-only effect, or another doubt; inactive = no such curve, though single readings can be large or run the other way. A potency beside an inconclusive call is a rough fit, not a confirmed value.
# Assay: Primary qHTS for delayed death inhibitors of the malarial parasite plastid, 96 hour incubation
# Conditions: P. falciparum luciferase reporter growth; series mostly up to 28.7 µM; activity change, negative = inhibition: at the top concentration
# Summary of the method: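 Parasite growth measured via integrated firefly luciferase reporter in P. falciparum. Infected erythrocytes at 2% hematocrit, 0.05% parasitemia final were treated 96 hours at 37 C under 5% CO2, and luminescence was read.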
# % is set by controls: 0 for no effect and ±100 for the full control effect; potency is the fitted concentration of half-maximal effect.
Structure (SMILES),"activity change, negative = inhibition",Potency
CCCCN1C(=O)CC(C(=O)O)C1c1ccc(OC)cc1 (configuration not stated),inactive: 30%,–
CC(C)c1cc(C(=O)N2CCCC(Nc3ccc(F)c(F)c3)C2)nc(N)n1 (configuration not stated),–,"inconclusive: 18.5 µM [inhibitor, single point]"
COC(=O)c1cc(C(=O)NCc2ccc3c(c2)OCO3)cc([N+](=O)[O-])c1,–,"inconclusive: 18.5 µM [inhibitor, single point]"
CC(C)Oc1cccc(-c2cc(C(=O)N3CCN(c4ncccn4)CC3)c3ccccc3n2)c1,–,active: 9.28 µM
Cc1ccc(NC(=O)c2ccc3c(c2)C(=O)N(c2ccccc2C)C3=O)nc1,inactive: -20.7%,–
CC(=O)Nc1ccc(-c2nc3ccc(NC(C)=O)cc3o2)cc1,inactive: 35.4%,–
CCc1cccc(C)c1NC(=O)COC(=O)CC1CCCC1,inactive: 12.5%,–
COCCNC(=O)C(c1ccc(C)o1)N(C(=O)Cn1nnc2ccccc21)c1ccccc1 (configuration not stated),–,"inconclusive: 11.7 µM [inhibitor, single point]"
COc1ccc2c(c1)CCc1c(C(=O)NCc3ccc(F)cc3)noc1-2,–,"inconclusive: 5.22 µM [inhibitor, partial curve, poor fit]"
CCCCn1c(N)c(N(Cc2ccccc2OC)C(=O)COc2ccc(C)cc2)c(=O)[nH]c1=O,inactive: -3.2%,–
CC(Sc1nc(-c2ccc(F)cc2)cs1)C(=O)Nc1ccc(Cl)cn1 (configuration not stated),–,"inconclusive: 10.4 µM [inhibitor, partial curve, poor fit]"
CC1CN(S(=O)(=O)c2csc(C(=O)Nc3ccccc3)c2)CC(C)O1 (configuration not stated),inactive: 32.9%,–
COc1ccc(S(=O)(=O)NN(C)C)cc1N(C)S(=O)(=O)c1ccc(Cl)cc1,inactive: 0%,–
CCC(NC(=O)Nc1ncccc1C)(C(F)(F)F)C(F)(F)F,inactive: 11.3%,–
O=C(Nc1ccccc1)N1CCC(C(=O)N(Cc2ccco2)Cc2cccs2)CC1,–,active: 1.65 µM
COC(=O)[C@H](Cc1ccccc1)[C@@H](C)OS(N)(=O)=O,inactive: 1.96%,–
CCc1ccc(NC(=S)NCC2CCCN2CC)cc1 (configuration not stated),–,"inconclusive: 18.5 µM [inhibitor, single point]"
N#CCCN(Cc1cccnc1)S(=O)(=O)c1ccc2ccccc2c1,–,"inconclusive: 4.65 µM [inhibitor, partial curve]"
CC(C[N+](C)(C)C)OC(=O)C1(c2ccccc2)CCCC1 (configuration not stated),–,"inconclusive: 3.7 µM [inhibitor, partial curve, poor fit]"
CCOC(=O)c1cc2cc(C)ccc2[nH]1,–,"inconclusive: 0.0029 µM [inhibitor, full curve, poor fit]"
CC/C(=N\NC(=O)COc1ccc(Br)cc1)c1ccc(OC)c(OC)c1,–,"inconclusive: 0.0738 µM [inhibitor, full curve, poor fit]"
Cn1c(-c2ccc(Br)o2)nc2cc(Br)ccc21,inactive: 298%,–
Cc1csc(NC(=O)c2ccc(C)c([N+](=O)[O-])c2)n1,–,"inconclusive: 18.5 µM [inhibitor, single point]"
O=C(c1cncc(Br)c1)N1CCN(c2ccc(N3CCOCC3)nn2)CC1,–,"inconclusive: 9.28 µM [inhibitor, single point]"

Structure (SMILES),"activity change, negative = inhibition",Potency
CCOC(=O)c1oc2ccccc2c1CN1CCCCC1,–,"inconclusive: 9.28 µM [inhibitor, single point]"
Cn1c2cc(B(O)O)sc2c2cnn(Cc3ccccc3F)c(=O)c21,–,"inconclusive: 18.5 µM [inhibitor, single point]"
CC(=O)c1ccc(C(=O)N2CCc3c([nH]c4ccccc34)C2c2ccccn2)s1 (configuration not stated),–,"inconclusive: 18.5 µM [inhibitor, single point]"
Cc1cc(C)n2c(=O)c3ccc(Cl)cc3nc2c1C#N,inactive: 9.55%,–
COc1cccc(CNC(=O)CCC2CCCN(C(=O)c3cccnc3SC)C2)c1 (configuration not stated),inactive: -11.6%,–
Cn1c(=O)[nH]c(=O)c2c1nc(N(CCO)Cc1ccccc1)n2CCCc1ccccc1,–,"inconclusive: 11.7 µM [inhibitor, single point]"
COc1ccc(S(=O)(=O)N2CCCCC2)cc1NC(=O)c1ccccc1,inactive: -9.01%,–
COc1ccc(N2CCN(S(=O)(=O)CCNC(=O)Cc3ccc([N+](=O)[O-])cc3)CC2)cc1,–,"inconclusive: 11.7 µM [inhibitor, single point]"
C=CCn1c(C)cc(/C([O-])=C(/C(=S)Nc2ccc(OC(F)F)cc2)[n+]2ccc(N(C)C)cc2)c1C,–,active: 3.7 µM
CC1CCN(C(=O)C2CCCN2S(=O)(=O)c2ccc(Cl)cc2)CC1 (configuration not stated),–,"inconclusive: 18.5 µM [inhibitor, single point]"
O=C(COC(=O)CN1C(=O)c2ccccc2C1=O)Nc1cccc(F)c1,inactive: 3.68%,–
CCCn1c(SCC(=O)c2cc(C)n(-c3cc(C)on3)c2C)n[nH]c1=O,inactive: -27.2%,–
CC1=CC(C)(C)N(C(=O)CSc2nccn2C)c2cc(C)ccc21,–,"inconclusive: 14.7 µM [inhibitor, partial curve]"
O=C(NNC(=O)c1nn(-c2ccc(F)cc2)ccc1=O)c1ccc(Cl)cc1,–,"inconclusive: 4.15 µM [inhibitor, single point]"
COc1ccc(S(=O)(=O)Nc2c(C)ccc3nsnc23)cc1OC,inactive: -10.5%,–
CCCCNC(=O)C1Cc2cc(S(=O)(=O)N3CCCC3)ccc2N1C(C)=O (configuration not stated),–,"inconclusive: 13.1 µM [inhibitor, single point]"
NC(=O)c1ccc[n+](Cc2ccc(-c3ccccc3)cc2)c1,–,active: 7.38 µM
CC(C(=O)Nc1ccccc1Cl)N(c1ccccc1)S(C)(=O)=O (configuration not stated),inactive: -10.9%,–
O=C(Nc1ccc(-c2cscn2)cc1)C1CCCN(Cc2ccccc2)C1 (configuration not stated),–,"inconclusive: 14.7 µM [inhibitor, partial curve, poor fit]"
CC(=O)c1cccc(NC(=O)COC(=O)c2n[nH]c3ccccc23)c1,inactive: 32.4%,–
Cc1ccc(OCc2cc(C(=O)NCc3cn4ccccc4n3)no2)cc1C,–,"inconclusive: 18.5 µM [inhibitor, single point]"
CSc1ncc(C(=O)Nc2ccccc2Cl)c(C)n1,–,"inconclusive: 2.94 µM [inhibitor, partial curve, poor fit]"
CCN1CCN(c2ccc(Cl)cc2NC(=O)c2ccc(-n3nc(C)cc3C)cc2)CC1,–,"inconclusive: 18.5 µM [inhibitor, single point]"
COc1ccc(-c2c(C)oc3cc(O)cc(O)c3c2=O)cc1OC,–,"inconclusive: 11.7 µM [inhibitor, partial curve, poor fit]"

Structure (SMILES),"activity change, negative = inhibition",Potency
Cc1nnc(SCCn2c(N3CCCCCC3)nc3c2c(=O)[nH]c(=O)n3C)s1,inactive: 48.5%,–
CC(=O)OCc1c(F)c(F)c(-n2nc(C)cc2C)c(F)c1F,inactive: -0.741%,–
Cc1ccc(CNC(=O)Cn2c(=O)n(-c3ccccc3)c(=O)c3sccc32)cc1,–,"inconclusive: 7.38 µM [inhibitor, partial curve, poor fit]"
Cc1ccc2nc3c(cc(C(=O)NC4CCCC4)c(=N)n3C3CCCCC3)c(=O)n2c1,–,"inconclusive: 14.7 µM [inhibitor, single point]"
CCCC1(c2ccccc2)NC(=O)N(C/C=C/Cl)C1=O (configuration not stated),–,"inconclusive: 13.1 µM [inhibitor, single point]"
O=C(COc1ccccc1Br)NCc1ccco1,inactive: -17.9%,–
O=C(O)c1ccc(NC(=S)NC(=O)c2cccc(COc3ccccc3)c2)cc1,–,"inconclusive: 18.5 µM [inhibitor, single point]"
COc1c(Cl)cc(-c2noc(C)c2C(=O)NC(C)C)cc1Cl,–,"inconclusive: 20.8 µM [inhibitor, single point]"
Cc1cc(N2CCOCC2)nc(-c2ccccc2O)n1,–,active: 2.33 µM
COc1ccc(C(CCNC(C)c2ccccc2)c2ccc(F)cc2)cc1 (configuration not stated),–,"inconclusive: 13.1 µM [inhibitor, single point]"
CC(NC(=O)c1cc(Br)cs1)C1CCCO1 (configuration not stated),–,active: 13.1 µM
COc1ccccc1N=CC=C1OC(C)(C)C(C)(C)O1,inactive: -26%,–
O=C(c1cccs1)N1CCN(Cc2nc3ccccc3c(=O)[nH]2)CC1,–,"inconclusive: 18.5 µM [inhibitor, single point]"
Nc1cnn(Cc2ccccc2F)c1,inactive: 32.9% [at 1.15 µM],–
Cc1cccc(-n2nnnc2SCC(=O)Nc2cccc(S(N)(=O)=O)c2)c1,–,"inconclusive: 3.7 µM [inhibitor, full curve, poor fit]"
O=C(Cc1ccc(F)cc1)NCCS(=O)(=O)N1CCN(c2cccc(Cl)c2)CC1,inactive: -19.2%,–
COc1ccc(CCNC(=O)C2CCN(S(=O)(=O)c3ccc(OC)c(OC)c3)CC2)cc1OC,–,"inconclusive: 13.1 µM [inhibitor, partial curve]"
CCN1C(N(C)CCc2cccs2)=N[C@@H](c2ccccc2)C(C(=O)OC)=C1C,–,"inconclusive: 4.15 µM [inhibitor, partial curve, poor fit] and inconclusive: 6.57 µM [inhibitor, partial curve]"
Cc1ccc(-c2noc(CN(C(=O)C(c3ccccc3)c3ccccc3)C(C)C)n2)cc1,–,"inconclusive: 10.4 µM [inhibitor, single point]"
N=C(N)SCc1ccccc1Cl,–,"inconclusive: 18.5 µM [inhibitor, single point]"
COC(=O)c1ccc2c(c1)NC(=O)CS2,inactive: -0.846%,–
Cc1ccc(/C=C2/Sc3ccc(C(=O)N4CCN(c5ccccn5)CC4)cc3NC2=O)cc1,–,"inconclusive: 16.5 µM [inhibitor, single point]"
COc1ccc(Cl)cc1NC(=O)CN(C)CC(=O)Nc1ccccc1-c1ccccc1,–,active: 11.7 µM
CCOc1ccc(-c2nnc(SCc3nnc(-c4ccccc4)o3)n2-c2ccccc2F)cc1,inactive: -23.7%,–
